Usually AC50 stands for the midpoint of the concentration-response curve, whichever way the signal moves.

Molecules are shown by their SMILES. Some of the results follow. Shown are side measurements of this screen, not its main read-out; they come without a call. Most of these compounds were active or inconclusive in the main read-out, so they are no random draw. Words in brackets tell the shape of the fitted curve; partial curves, single points and poor fits give uncertain potencies.

A short description of this assay: qHTS Assay to Find Inhibitors of Chronic Active B-Cell Receptor Signaling. The following applies: ABC-DLBCL IkBa-CBG/CBR reporter, luminescence ratio (green luciferase fused to IkBa over red control in TMD8 lymphoma cells), 4 h. The method, boiled down:
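TMD8 ABC-DLBCL cells carrying doxycycline-inducible green luciferase fused to IkappaBalpha plus unfused red luciferase were exposed to compounds (up to 46 uM) for 4 hrs at 37C. Activity came from the overlap-corrected green/red luminescence ratio.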

[1] abbreviates: measured here: CBR red luminescence, cell number.
Where [2] appears, read: measured here: IkBa-CBG green luminescence.

On to `COCCN(Cc1ccc(F)cc1)C(=O)c1cc2ccccc2oc1=O`, for which the AC50 under setting [1] was 22.4 µM [rising, single point].

In the case of `Cc1ccc(NCc2ccc(O)c3ncccc23)cc1C`, the concentration at half-maximal activity (AC50) under setting [1] is 20 µM [falling, partial curve, poor fit].

As for `COc1ccc(OC)c(C(=O)N2CCC(CCC(=O)NC3CC3)CC2)c1`, the AC50 under setting [1] is 1.58 µM [falling, partial curve, poor fit].

Regarding `CC(C)(C)c1csc(Sc2ncccc2[N+](=O)[O-])n1`, the AC50 under setting [1] was 5.62 µM [rising, full curve, poor fit].

Take `COc1cccc(-c2nc3ccc(C(=O)NC(C)Cc4cccnc4)cc3o2)c1` (configuration not stated): the AC50 under setting [1] is 3.55 µM [rising, partial curve].

As to `COc1ccc(-c2nc3scc(CCNS(=O)(=O)c4ccc(F)cc4C)n3n2)cc1`, the AC50 under setting [1] was 35.5 µM [falling, single point].

On to `S=c1[nH]nc(C2CCCCC2)n1/N=C/c1ccc(Cl)cc1`, for which the half-maximal activity concentration (AC50) under setting [1] was 22.4 µM [rising, single point].

On to `COc1cccc(C(=O)Nc2ccc(NC(=O)C3CC3)nc2)c1`, for which the AC50 under setting [1] is 6.31 µM [falling, full curve].

On to `COc1ccc(Nc2cc3n(c(=O)n2)CCc2cc(OC)c(OC)cc2-3)cc1`, for which the AC50 under setting [2] is 20 µM [falling, partial curve, poor fit].

With `CCc1nnc(NC(=O)CSc2nnc(C)n2CC2CCCO2)s1` (configuration not stated), under setting [1], the AC50 was 10.3 µM [falling, partial curve].

On to `Cc1cc2oc(=O)cc(Cn3ncc(Cl)c(Cl)c3=O)c2cc1Cl`, for which the AC50 under setting [1] was 1 µM [falling, full curve].

Regarding `O=C(Nc1cccc(-c2nc3ccccc3[nH]2)c1)c1ccco1`, the concentration at half-maximal activity (AC50) under setting [1] is 5.62 µM [falling, full curve].

Take `CCS(=O)(=O)N1CCN(C(=O)c2ccc(-c3ccccc3)cc2)CC1`: under setting [1], the AC50 was 3.16 µM [rising, partial curve, poor fit].

Regarding `Fc1ccccc1/C=N/n1cnnc1`, under setting [1], the AC50 is 0.731 µM [rising, partial curve, poor fit].

In the case of `c1ccc(C[n+]2c(-c3ccccc3)csc2Nc2ccccc2)cc1`, the AC50 under setting [1] is 7.31 µM [rising, partial curve, poor fit].

`CC(C)c1ccc(NC(=O)CNCC(c2ccccc2)N(C)C)cc1` (configuration not stated): under setting [1], the AC50 is 12.6 µM [falling, single point].

Regarding `O=C(C1CC1)N1CCC(c2nc(-c3ccc(S(=O)(=O)NCC4CCCO4)cc3)no2)CC1` (configuration not stated), under setting [1], the AC50 is 1.64 µM [falling, partial curve].

Consider `CCOCCCNC(=O)c1oc2ccc(S(=O)(=O)N3CCOCC3)cc2c1C`, for which, under setting [1], the AC50 is 14.1 µM [rising, single point].

With `COc1ccc(CSc2nc(N3CCOCC3)c3c(c2C#N)CC(C)(C)OC3)cc1`, the AC50 under setting [1] was 0.0731 µM [rising, full curve, poor fit].

`O=C(CN1C(=O)S/C(=C\c2cc(Cl)c(O)c(Cl)c2)C1=O)Nc1ccccc1`: the AC50 under setting [1] is 35.5 µM [falling, single point].

For `Cc1ccc(C)c(N(CC(=O)NC2CCCCC2)C(=O)c2snc(C(N)=O)c2N)c1`, the AC50 under setting [1] is 3.55 µM [falling, single point].

In the case of `CCOC(=O)C1CCCN(C(=O)c2cc(S(=O)(=O)Nc3ccccc3OC)ccc2C)C1` (configuration not stated), under setting [1], the concentration at half-maximal activity (AC50) was 17.8 µM [falling, partial curve, poor fit].

Regarding `CC(C)Cn1c(N)c(C(=O)NCc2cccs2)c2nc3ccccc3nc21`, the AC50 by setting is: under setting [1], 13 µM [falling, partial curve]; under setting [2], 5.8 µM [rising, partial curve, poor fit].

For the molecule `COc1cccc(-c2nnc3sc(-c4cccs4)nn23)c1`, under setting [1], the AC50 is 3.98 µM [falling, partial curve, poor fit].

For the molecule `COc1cc(C(=O)NCCCc2ccccc2)cc(OC)c1OC`, under setting [1], the AC50 is 1.78 µM [falling, partial curve, poor fit].

Consider `COc1ccccc1/C=C/C(=O)N1CCC(c2ccccc2)C1` (configuration not stated), for which, under setting [1], the AC50 was 1.84 µM [falling, partial curve].

For the molecule `Cc1sc2ncnc(N/N=C/c3ccccc3O)c2c1C`, the AC50 under setting [1] is 0.326 µM [falling, full curve].

For `COc1cc(C)nc(NCc2ccccc2)n1`, the AC50 is, setting by setting: under setting [1], 23.1 µM [rising, partial curve]; under setting [2], 18.4 µM [falling, partial curve, poor fit].

As to `O=c1[nH]c(SCc2ccccc2)nnc1-c1ccccc1`, under setting [1], the AC50 is 1.16 µM [falling, full curve].

For the molecule `COc1cc(CNC2CCCCC2OC)cc(OC)c1` (configuration not stated), the AC50 under setting [1] was 7.08 µM [rising, full curve, poor fit].

Regarding `Clc1ccc(OCCCCCN2CCOCC2)cc1`, the AC50 under setting [1] is 28.2 µM [rising, partial curve, poor fit].

Take `Cc1cc(C)cc(OCc2nnc(SCC(=O)c3ccc(Br)cc3)o2)c1`: the AC50 under setting [1] was 8.2 µM [rising, partial curve, poor fit].

`Cc1ccc(C)c(S(=O)(=O)N2CCN(C(=O)CSC(=S)N3CCCC3)CC2)c1`: under setting [1], the AC50 was 4.61 µM [rising, partial curve, poor fit].

As to `CCOc1ccc(-c2nc(N)ncc2Oc2cccc(OC)c2)c(O)c1`, the AC50 under setting [1] was 29.1 µM [falling, single point].

In the case of `Cn1ncc(C(=O)N=S(C)(=O)c2ccccc2)c1[N+](=O)[O-]` (configuration not stated), the AC50 under setting [1] is 10 µM [falling, partial curve].

Regarding `O=C(Nc1ccccc1Cl)C1Cc2ccccc2O/C1=N\O` (configuration not stated), the AC50 under setting [1] was 3.98 µM [rising, full curve, poor fit].

For the molecule `CC(C)(C)NC(=O)COC(=O)c1ccccc1Nc1ccc(SC(F)F)cc1`, under setting [1], the AC50 is 18.4 µM [falling, single point].

Take `Fc1ccc(C2=Nn3c(nnc3-c3n[nH]c4c3CCC4)SC2)cc1`: the concentration at half-maximal activity (AC50) reads like this: under setting [1], 12.6 µM [rising, partial curve, poor fit]; under setting [2], 2.82 µM [falling, full curve, poor fit].

Consider `C/C(=N\Nc1ncc(Cl)cc1Cl)c1ccc(C#N)cc1`, for which the AC50 under setting [1] was 35.5 µM [rising, partial curve, poor fit].

Turning to `Oc1ccc(CNc2cccc(F)c2F)c2cccnc12`, the AC50 reads like this: under setting [1], 2.06 µM [rising, partial curve]; under setting [2], 3.66 µM [falling, partial curve, poor fit].

`Cc1ccc(S(=O)(=O)N2C/C=C\CN(S(=O)(=O)c3ccccc3Br)CC2)cc1`: the AC50 under setting [1] is 29.1 µM [rising, single point].

Regarding `Cn1nc(-c2ccccc2F)c2cc(C(=O)Nc3ccc4c(c3)OCCO4)sc21`, under setting [1], the AC50 was 2.59 µM [rising, single point].

`O=C(N1CCCC1)C12CC3CC(C1)CC(C(=O)N1CCCC1)(C3)C2`: the AC50 under setting [1] was 12.6 µM [rising, single point].

For `CCN(CC)CCCn1c2c(c(SCC(=O)Nc3cc(OC)cc(OC)c3)nc1=O)CCC2`, the AC50 under setting [1] is 16.4 µM [falling, partial curve].

`COc1ccc(C(=O)CC(=O)c2ccccc2O)cc1OC`: the AC50 under setting [1] is 3.55 µM [rising, partial curve, poor fit].

Take `O=C(/C=C/c1ccco1)NC(=S)NNC(=O)c1ccco1`: the AC50 under setting [1] was 11.6 µM [falling, partial curve].

As to `O=C(NCCSc1ccccc1)c1cccnc1`, the half-maximal activity concentration (AC50) under setting [1] was 2.24 µM [rising, full curve, poor fit].

As to `Cc1cccc(-n2c(C)cc(/C=C3/C(=N)N4C(c5ccccc5)=CSC4=NC3=O)c2C)c1`, the AC50 under setting [1] is 0.00411 µM [rising, full curve, poor fit].

For the molecule `OCCC1CN(Cc2cc(F)ccc2-n2cccn2)CCN1C1CCCC1` (configuration not stated), the AC50 under setting [1] is 8.91 µM [rising, partial curve, poor fit].

Take `COC(=O)c1ccc(CSc2nnc(NC(=O)C3CC(=O)N(Cc4ccc(C)cc4)C3)s2)cc1` (configuration not stated): the AC50 under setting [1] was 1.64 µM [rising, partial curve, poor fit].

`Cn1c(N)c(C(=O)COC(=O)[C@H](Cc2ccccc2)N2C(=O)c3ccccc3C2=O)c(=O)n(C)c1=O`: the AC50 under setting [1] is 1.16 µM [rising, full curve, poor fit].

Regarding `CSc1ccc(CN2C(=O)NC3(CCCCCCC3)C2=O)cc1`, the AC50 under setting [1] was 17.8 µM [rising, partial curve, poor fit].

As to `Cc1oc(-c2ccccc2)cc1C(=O)NCc1ccncc1`, under setting [1], the AC50 is 2.24 µM [rising, full curve].

In the case of `Cc1nc([N+](=O)[O-])c(Sc2nc3ccccc3[nH]2)n1Cc1ccccc1`, under setting [1], the AC50 was 7.31 µM [falling, partial curve, poor fit].

With `O=C(N/N=C/c1ccccc1O)C(=O)Nc1ccccn1`, the AC50 under setting [1] is 1.41 µM [falling, full curve].

For `CC1=NN(C(N)=S)C(=O)C1N=Nc1cccc2ccccc12` (configuration not stated), the AC50 under setting [1] was 7.08 µM [rising, full curve, poor fit].

`O=[N+]([O-])c1ccc(N=Nc2c(Cl)cc(O)cc2Cl)cc1`: under setting [1], the AC50 was 0.447 µM [rising, partial curve, poor fit].

For `CSc1cccc(NC(=S)N2CCCN(Cc3cccc(Cl)c3)C2)c1`, the AC50 under setting [1] is 35.5 µM [falling, single point].

Regarding `N/C(CCS(=O)(=O)c1ccc(Cl)cc1)=N\OC(=O)c1ccccc1Cl`, under setting [1], the AC50 is 17.8 µM [rising, partial curve, poor fit].

Regarding `O=C(Nc1cc2c3c(c1)CC(=O)N3CCC2)C1CC1`, the AC50 under setting [1] is 18.4 µM [rising, partial curve].

With `CCS(=O)(=O)c1nc(S(=O)(=O)c2ccc(C)cc2)c(N2CCC3(CC2)OCCO3)s1`, the AC50 under setting [1] is 17.8 µM [falling, partial curve, poor fit].

As for `O=S1(=O)CC(O)C(N(CCO)C(=S)Nc2ccccc2)C1` (configuration not stated), under setting [1], the AC50 was 15.8 µM [rising, single point].

As to `Cc1cccc(N2CCN(S(=O)(=O)c3ccc4c(c3)NC(=O)CS4)CC2)c1C`, the half-maximal activity concentration (AC50) under setting [1] was 7.94 µM [falling, partial curve].

The record behind these values is PubChem BioAssay AID493014 (National Center for Advancing Translational Sciences (NCATS), 2011).
